Results are given in words; binding and its absence hold for the method and conditions named. Binding seen in cells or lysates may run through a third protein. These calls come from enrichment with a bait or labelling near it, and not all partners need be listed.
T1: LAMP1-APEX2 (UniProt P11279)
T1 sequence: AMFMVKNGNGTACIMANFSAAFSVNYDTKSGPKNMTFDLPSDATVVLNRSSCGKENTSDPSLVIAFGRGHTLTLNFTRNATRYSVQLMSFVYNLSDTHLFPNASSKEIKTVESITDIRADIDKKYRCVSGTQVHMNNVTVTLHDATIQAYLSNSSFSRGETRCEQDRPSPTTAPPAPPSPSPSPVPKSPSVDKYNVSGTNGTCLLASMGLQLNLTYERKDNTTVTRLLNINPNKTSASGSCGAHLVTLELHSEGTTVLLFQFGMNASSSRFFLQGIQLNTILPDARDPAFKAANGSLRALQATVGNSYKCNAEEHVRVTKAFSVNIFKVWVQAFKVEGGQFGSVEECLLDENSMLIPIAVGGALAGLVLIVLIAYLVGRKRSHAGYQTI


The binders below were run against T1, LAMP1-APEX2 (assay: proximity labelling).

Binder	binding
INPPL1 (protein, UniProt O15357 1-1258) MASACGAPGPGGALGSQAPSWYHRDLSRAAAEELLARAGRDGSFLVRDSESVAGAFALCVLYQKHVHTYRILPDGEDFLAVQTSQGVPVRRFQTLGELIGLYAQPNQGLVCALLLPVEGEREPDPPDDRDASDGEDEKPPLPPRSGSTSISAPTGPSSPLPAPETPTAPAAESAPNGLSTVSHDYLKGSYGLDLEAVRGGASHLPHLTRTLATSCRRLHSEVDKVLSGLEILSKVFDQQSSPMVTRLLQQQNLPQTGEQELESLVLKLSVLKDFLSGIQKKALKALQDMSSTAPPAPQPSTRKAKTIPVQAFEVKLDVTLGDLTKIGKSQKFTLSVDVEGGRLVLLRRQRDSQEDWTTFTHDRIRQLIKSQRVQNKLGVVFEKEKDRTQRKDFIFVSARKREAFCQLLQLMKNKHSKQDEPDMISVFIGTWNMGSVPPPKNVTSWFTSKGLGKTLDEVTVTIPHDIYVFGTQENSVGDREWLDLLRGGLKELTDLDYRPIAMQSLWNIKVAVLVKPEHENRISHVSTSSVKTGIANTLGNKGAVGVSFMFNGTSFGFVNCHLTSGNEKTARRNQNYLDILRLLSLGDRQLNAFDISLRFTHLFWFGDLNYRLDMDIQEILNYISRKEFEPLLRVDQLNLEREKHKVFLRFSEEEISFPPTYRYERGSRDTYAWHKQKPTGVRTNVPSWCDRILWKSYPETHIICNSYGCTDDIVTSDHSPVFGTFEVGVTSQFISKKGLSKTSDQAYIEFESIEAIVKTASRTKFFIEFYSTCLEEYKKSFENDAQSSDNINFLKVQWSSRQLPTLKPILADIEYLQDQHLLLTVKSMDGYESYGECVVALKSMIGSTAQQFLTFLSHRGEETGNIRGSMKVRVPTERLGTRERLYEWISIDKDEAGAKSKAPSVSRGSQEPRSGSRKPAFTEASCPLSRLFEEPEKPPPTGRPPAPPRAAPREEPLTPRLKPEGAPEPEGVAAPPPKNSFNNPAYYVLEGVPHQLLPPEPPSPARAPVPSATKNKVAITVPAPQLGHHRHPRVGEGSSSDEESGGTLPPPDFPPPPLPDSAIFLPPSLDPLPGPVVRGRGGAEARGPPPPKAHPRPPLPPGPSPASTFLGEVASGDDRSCSVLQMAKTLSEVDYAPAGPARSALLPGPLELQPPRGLPSDYGRPLSFPPPRIRESIQEDLAEEAPCLQGGRASGLGEAGMSAWLRAIGLERYEEGLVHNGWDDLEFLSDITEEDLEEAGVQDPAHKRLLLDTLQLSK	binds
INPP5F (protein, UniProt Q9Y2H2 1-1132) MELFQAKDHYILQQGERALWCSRRDGGLQLRPATDLLLAWNPICLGLVEGVIGKIQLHSDLPWWLILIRQKALVGKLPGDHEVCKVTKIAVLSLSEMEPQDLELELCKKHHFGINKPEKIIPSPDDSKFLLKTFTHIKSNVSAPNKKKVKESKEKEKLERRLLEELLKMFMDSESFYYSLTYDLTNSVQRQSTGERDGRPLWQKVDDRFFWNKYMIQDLTEIGTPDVDFWIIPMIQGFVQIEELVVNYTESSDDEKSSPETPPQESTCVDDIHPRFLVALISRRSRHRAGMRYKRRGVDKNGNVANYVETEQLIHVHNHTLSFVQTRGSVPVFWSQVGYRYNPRPRLDRSEKETVAYFCAHFEEQLNIYKKQVIINLVDQAGREKIIGDAYLKQVLLFNNSHLTYVSFDFHEHCRGMKFENVQTLTDAIYDIILDMKWCWVDEAGVICKQEGIFRVNCMDCLDRTNVVQAAIARVVMEQQLKKLGVMPPEQPLPVKCNRIYQIMWANNGDSISRQYAGTAALKGDFTRTGERKLAGVMKDGVNSANRYYLNRFKDAYRQAVIDLMQGIPVTEDLYSIFTKEKEHEALHKENQRSHQELISQLLQSYMKLLLPDDEKFHGGWALIDCDPSLIDATHRDVDVLLLLSNSAYYVAYYDDEVDKVNQYQRLSLENLEKIEIGPEPTLFGKPKFSCMRLHYRYKEASGYFHTLRAVMRNPEEDGKDTLQCIAEMLQITKQAMGSDLPIIEKKLERKSSKPHEDIIGIRSQNQGSLAQGKNFLMSKFSSLNQKVKQTKSNVNIGNLRKLGNFTKPEMKVNFLKPNLKVNLWKSDSSLETMENTGVMDKVQAESDGDMSSDNDSYHSDEFLTNSKSDEDRQLANSLESVGPIDYVLPSCGIIASAPRLGSRSQSLSSTDSSVHAPSEITVAHGSGLGKGQESPLKKSPSAGDVHILTGFAKPMDIYCHRFVQDAQNKVTHLSETRSVSQQASQERNQMTNQVSNETQSESTEQTPSRPSQLDVSLSATGPQFLSVEPAHSVASQKTPTSASSMLELETGLHVTPSPSESSSSRAVSPFAKIRSSMVQVASITQAGLTHGINFAVSKVQKSPPEPEIINQVQQNELKKMFIQCQTRIIQI	binds
PIP4K2A (protein, UniProt P48426 1-406) MATPGNLGSSVLASKTKTKKKHFVAQKVKLFRASDPLLSVLMWGVNHSINELSHVQIPVMLMPDDFKAYSKIKVDNHLFNKENMPSHFKFKEYCPMVFRNLRERFGIDDQDFQNSLTRSAPLPNDSQARSGARFHTSYDKRYIIKTITSEDVAEMHNILKKYHQYIVECHGITLLPQFLGMYRLNVDGVEIYVIVTRNVFSHRLSVYRKYDLKGSTVAREASDKEKAKELPTLKDNDFINEGQKIYIDDNNKKVFLEKLKKDVEFLAQLKLMDYSLLVGIHDVERAEQEEVECEENDGEEEGESDGTHPVGTPPDSPGNTLNSSPPLAPGEFDPNIDVYGIKCHENSPRKEVYFMAIIDILTHYDAKKKAAHAAKTVKHGAGAEISTVNPEQYSKRFLDFIGHILT	binds

Further lines, results first:

binding	Binder
binds	PLCG2 (protein, UniProt P16885 1-1265) MSTTVNVDSLAEYEKSQIKRALELGTVMTVFSFRKSTPERRTVQVIMETRQVAWSKTADKIEGFLDIMEIKEIRPGKNSKDFERAKAVRQKEDCCFTILYGTQFVLSTLSLAADSKEDAVNWLSGLKILHQEAMNASTPTIIESWLRKQIYSVDQTRRNSISLRELKTILPLINFKVSSAKFLKDKFVEIGAHKDELSFEQFHLFYKKLMFEQQKSILDEFKKDSSVFILGNTDRPDASAVYLHDFQRFLIHEQQEHWAQDLNKVRERMTKFIDDTMRETAEPFLFVDEFLTYLFSRENSIWDEKYDAVDMQDMNNPLSHYWISSSHNTYLTGDQLRSESSPEAYIRCLRMGCRCIELDCWDGPDGKPVIYHGWTRTTKIKFDDVVQAIKDHAFVTSSFPVILSIEEHCSVEQQRHMAKAFKEVFGDLLLTKPTEASADQLPSPSQLREKIIIKHKKLGPRGDVDVNMEDKKDEHKQQGELYMWDSIDQKWTRHYCAIADAKLSFSDDIEQTMEEEVPQDIPPTELHFGEKWFHKKVEKRTSAEKLLQEYCMETGGKDGTFLVRESETFPNDYTLSFWRSGRVQHCRIRSTMEGGTLKYYLTDNLTFSSIYALIQHYRETHLRCAEFELRLTDPVPNPNPHESKPWYYDSLSRGEAEDMLMRIPRDGAFLIRKREGSDSYAITFRARGKVKHCRINRDGRHFVLGTSAYFESLVELVSYYEKHSLYRKMRLRYPVTPELLERYNMERDINSLYDVSRMYVDPSEINPSMPQRTVKALYDYKAKRSDELSFCRGALIHNVSKEPGGWWKGDYGTRIQQYFPSNYVEDISTADFEELEKQIIEDNPLGSLCRGILDLNTYNVVKAPQGKNQKSFVFILEPKQQGDPPVEFATDRVEELFEWFQSIREITWKIDTKENNMKYWEKNQSIAIELSDLVVYCKPTSKTKDNLENPDFREIRSFVETKADSIIRQKPVDLLKYNQKGLTRVYPKGQRVDSSNYDPFRLWLCGSQMVALNFQTADKYMQMNHALFSLNGRTGYVLQPESMRTEKYDPMPPESQRKILMTLTVKVLGARHLPKLGRSIACPFVEVEICGAEYDNNKFKTTVVNDNGLSPIWAPTQEKVTFEIYDPNLAFLRFVVYEEDMFSDPNFLAHATYPIKAVKSGFRSVPLKNGYSEDIELASLLVFCEMRPVLESEEELYSSCRQLRRRQEELNNQLFLYDTHQNLRNANRDALVKEFSVNENQLQLYQEKCNKRLREKRVSNSKFYS
binds	VPS16 (protein, UniProt Q9H269 1-839) MDCYTANWNPLGDSAFYRKYELYSMDWDLKEELRDCLVAAAPYGGPIALLRNPWRKEKAASVRPVLDIYSASGMPLASLLWKSGPVVSLGWSAEEELLCVQEDGAVLVYGLHGDFRRHFSMGNEVLQNRVLDARIFHTEFGSGVAILTGAHRFTLSANVGDLKLRRMPEVPGLQSAPSCWTVLCQDRVAHILLAVGPDLYLLDHAACSAVTPPGLAPGVSSFLQMAVSFTYRHLALFTDTGYIWMGTASLKEKLCEFNCNIRAPPKQMVWCSRPRSKERAVVVAWERRLMVVGDAPESIQFVLDEDSYLVPELDGVRIFSRSTHEFLHEVPAASEEIFKIASMAPGALLLEAQKEYEKESQKADEYLREIQELGQLTQAVQQCIEAAGHEHQPDMQKSLLRAASFGKCFLDRFPPDSFVHMCQDLRVLNAVRDYHIGIPLTYSQYKQLTIQVLLDRLVLRRLYPLAIQICEYLRLPEVQGVSRILAHWACYKVQQKDVSDEDVARAINQKLGDTPGVSYSDIAARAYGCGRTELAIKLLEYEPRSGEQVPLLLKMKRSKLALSKAIESGDTDLVFTVLLHLKNELNRGDFFMTLRNQPMALSLYRQFCKHQELETLKDLYNQDDNHQELGSFHIRASYAAEERIEGRVAALQTAADAFYKAKNEFAAKATEDQMRLLRLQRRLEDELGGQFLDLSLHDTVTTLILGGHNKRAEQLARDFRIPDKRLWWLKLTALADLEDWEELEKFSKSKKSPIGYLPFVEICMKQHNKYEAKKYASRVGPEQKVKALLLVGDVAQAADVAIEHRNEAELSLVLSHCTGATDGATADKIQRARAQAQKK
binds	VPS50 (protein, UniProt Q96JG6 1-964) MQKIKSLMTRQGLKSPQESLSDLGAIESLRVPGKEEFRELREQPSDPQAEQELINSIEQVYFSVDSFDIVKYELEKLPPVLNLQELEAYRDKLKQQQAAVSKKVADLILEKQPAYVKELERVTSLQTGLQLAAVICTNGRRHLNIAKEGFTQASLGLLANQRKRQLLIGLLKSLRTIKTLQRTDVRLSEMLEEEDYPGAIQLCLECQKAASTFKHYSCISELNSKLQDTLEQIEEQLDVALSKICKNFDINHYTKVQQAYRLLGKTQTAMDQLHMHFTQAIHNTVFQVVLGYVELCAGNTDTKFQKLQYKDLCTHVTPDSYIPCLADLCKALWEVMLSYYRTMEWHEKHDNEDTASASEGSNMIGTEETNFDRGYIKKKLEHGLTRIWQDVQLKVKTYLLGTDLSIFKYDDFIFVLDIISRLMQVGEEFCGSKSEVLQESIRKQSVNYFKNYHRTRLDELRMFLENETWELCPVKSNFSILQLHEFKFMEQSRSPSVSPSKQPVSTSSKTVTLFEQYCSGGNPFEIQANHKDEETEDVLASNGYESDEQEKSAYQEYDSDSDVPEELKRDYVDEQTGDGPVKSVSRETLKSRKKSDYSLNKVNAPILTNTTLNVIRLVGKYMQMMNILKPIAFDVIHFMSQLFDYYLYAIYTFFGRNDSLESTGLGLSSSRLRTTLNRIQESLIDLEVSADPTATLTAAEERKEKVPSPHLSHLVVLTSGDTLYGLAERVVATESLVFLAEQFEFLQPHLDAVMPAVKKPFLQQFYSQTVSTASELRKPIYWIVAGKALDYEQMLLLMANVKWDVKEIMSQHNIYVDALLKEFEQFNRRLNEVSKRVRIPLPVSNILWEHCIRLANRTIVEGYANVKKCSNEGRALMQLDFQQFLMKLEKLTDIRPIPDKEFVETYIKAYYLTENDMERWIKEHREYSTKQLTNLVNVCLGSHINKKARQKLLAAIDDIDRPKR

Source: publication doi:10.1101/2022.12.14.520480
